Results taken from US20210238294A1 (JIANGSU HENGRUI MEDICINE, published 2021).

Target: his-tagged rhesus IL-4R recombinant protein (rhesus)
Assay: ELISA, plate-coated rhesus IL-4R-his

B1: murine monoclonal antibody 25G7 (antibody, V domains shown)
VH: EVQLVESGGGLVKPGGSLKLSCAASGFTFSDYGMHWVRQAPEKGLEWVAFISSGSSIIYYADIVKGRSTISRDNAKNTLFLQMTSLRSEDTAMYYCTRGNKRGFFDYWGQGTILTVSS
VL: QIVLTQSPALMSASPGEKVTMTCNASSSVSYMYWYQRKPRSSPKPWIYLTSNLASGVPVRFSGSGSGTSYSLTISSMEAEDAATYYCQQWRSNPPMLTFGSGTKLEVK
For B1, the binding was “no binding”.

B2: humanized antibody hu25G7 (with VH-c heavy chain and VL-a light chain) (antibody, human IgG4 S228P, kappa, V domains shown)
VH: EVQLVESGGGLVQPGGSLRLSCAASGFTFSDYGMHWVRQAPGKGLEWVAFISSGSSIIYYADIVKGRSTISRDNAKNSLYLQMNSLRAEDTAVYYCTRGNKRGFFDYWGQGTLVTVSS
VL: EIVLTQSPATLSLSPGERATLSCNASSSVSYMYWYQQKPGQAPRLLIYLTSNLASGIPARFSGSGSGTDFTLTISSLEPEDFAVYYCQQWRSNPPMLTFGGGTKVEIKR
For B2, the binding was “no binding”.

B3: humanized antibody hu7B10 (with VH-b heavy chain and VL-b light chain) (antibody, human IgG1, kappa, V domains shown)
VH: EVQLVQSGAEVKKPGASVKVSCKASGYTFTSYWMHWVRQAPGQGLEWMGLIHPNSDTTKFSENFKTRVTMTIDTSISTAYMELSRLRSDDTAVYYCAKSKIITTIVARHWYFDVWGQGTTVTVSS
VL: DIVLTQTPLSLSVTPGQPASISCKASQSVDYGGDSYMNWYLQKPGQPPQLLIYAASNLESGVPDRFSGSGSGTDFTLKISRVEAEDVGVYYCQHSNENPPTFGGGTKVEIKR
With B3 the binding was “no binding”.

B4: mouse monoclonal antibody 7B10 (antibody, V domains shown)
VH: QVQLQQPGTELLKPGASVSLSCKASGYTFTSYWMHWVKQRPGQGLEWIGLIHPNSDTTKFSENFKTRATLTIDKSSSTAYMKLSSLTSEDSAVYYCAKSKIITTIVARHWYFDVWGTGTTVTVSS
VL: DIVLTQSPPSLAVSLGQRATISCKASQSVDYGGDSYMNWYQQKLGQPPKVLIYAASNLESGIPARFSGSGSGTDFTLNIHPVEEEDVATYYCQHSNENPPTFGGGTKLEIK
In the case of B4, the binding is reported as “no binding”.

B5: human-mouse chimeric antibody 25G7-C (antibody, V domains shown)
VH: EVQLVESGGGLVKPGGSLKLSCAASGFTFSDYGMHWVRQAPEKGLEWVAFISSGSSIIYYADIVKGRSTISRDNAKNTLFLQMTSLRSEDTAMYYCTRGNKRGFFDYWGQGTILTVSS
VL: QIVLTQSPALMSASPGEKVTMTCNASSSVSYMYWYQRKPRSSPKPWIYLTSNLASGVPVRFSGSGSGTSYSLTISSMEAEDAATYYCQQWRSNPPMLTFGSGTKLEVK
With B5 the binding was “no binding”.

B6: human-mouse chimeric antibody 7B10-C (antibody, V domains shown)
VH: QVQLQQPGTELLKPGASVSLSCKASGYTFTSYWMHWVKQRPGQGLEWIGLIHPNSDTTKFSENFKTRATLTIDKSSSTAYMKLSSLTSEDSAVYYCAKSKIITTIVARHWYFDVWGTGTTVTVSS
VL: DIVLTQSPPSLAVSLGQRATISCKASQSVDYGGDSYMNWYQQKLGQPPKVLIYAASNLESGIPARFSGSGSGTDFTLNIHPVEEEDVATYYCQHSNENPPTFGGGTKLEIK
B6 was tested, and the binding was “no binding”.

These are yes or no findings as the source states them, for the method shown.
